Source: the supplement of paper PMC12823440, “Inhibitors supercharge kinase turnover through native proteolytic circuits” (Nature, 2025)
Where a name gives a salt, the structure may show the parent alone. Some of the results follow. The calls rarely recur for the same compound in another form.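 In K562 cells expressing nanoluciferase-fused kinases, luminescence was recorded at 4 h intervals between 2 and 18 h, normalized as percent of control with DMSO at 100% and a positive control at 0%. A significant (2 sigma) signal drop marks a time point as decreased. The authors' rule for a hit is not shown and takes in more than the number of time points.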

Protein sequences, listed by entry. Tags and fused reporters are not part of them.
UniProt P07949, whole entry, looked up: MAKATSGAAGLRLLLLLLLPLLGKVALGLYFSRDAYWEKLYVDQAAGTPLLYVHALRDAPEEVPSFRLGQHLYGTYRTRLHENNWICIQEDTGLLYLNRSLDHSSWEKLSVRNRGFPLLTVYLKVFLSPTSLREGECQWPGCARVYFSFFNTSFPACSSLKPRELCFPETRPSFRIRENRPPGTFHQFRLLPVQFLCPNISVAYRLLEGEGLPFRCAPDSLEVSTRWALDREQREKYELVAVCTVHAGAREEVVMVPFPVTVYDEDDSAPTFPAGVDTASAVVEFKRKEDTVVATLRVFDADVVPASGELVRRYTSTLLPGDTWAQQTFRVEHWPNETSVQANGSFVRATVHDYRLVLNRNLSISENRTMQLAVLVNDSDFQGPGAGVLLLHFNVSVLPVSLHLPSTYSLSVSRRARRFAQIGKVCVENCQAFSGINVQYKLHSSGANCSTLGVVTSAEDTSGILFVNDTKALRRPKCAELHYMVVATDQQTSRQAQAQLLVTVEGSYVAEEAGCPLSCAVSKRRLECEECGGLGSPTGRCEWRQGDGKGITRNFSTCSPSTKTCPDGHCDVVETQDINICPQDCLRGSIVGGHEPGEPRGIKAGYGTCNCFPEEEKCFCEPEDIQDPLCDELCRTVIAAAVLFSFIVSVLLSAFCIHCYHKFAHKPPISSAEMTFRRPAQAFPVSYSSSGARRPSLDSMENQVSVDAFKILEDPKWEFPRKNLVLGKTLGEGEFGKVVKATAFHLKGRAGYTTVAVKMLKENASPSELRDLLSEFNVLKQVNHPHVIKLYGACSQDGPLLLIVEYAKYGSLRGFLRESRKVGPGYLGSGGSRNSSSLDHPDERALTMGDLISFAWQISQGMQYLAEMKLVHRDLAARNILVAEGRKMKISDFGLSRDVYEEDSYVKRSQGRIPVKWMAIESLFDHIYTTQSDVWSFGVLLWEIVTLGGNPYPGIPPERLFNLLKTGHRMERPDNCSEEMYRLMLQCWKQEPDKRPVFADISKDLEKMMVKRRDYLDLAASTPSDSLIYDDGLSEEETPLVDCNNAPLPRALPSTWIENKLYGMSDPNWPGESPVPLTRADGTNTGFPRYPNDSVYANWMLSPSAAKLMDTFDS

These compounds were tested against RET (UniProt P07949) (assay: kinase-Nluc reporter destabilization hit call (1 = scored as downregulated) (binary); higher = compound decreases kinase abundance). Details: K562; 2-18 h.

kinase-Nluc reporter destabilization hit call, inactive:
Cc1cc(C)nc(NS(=O)(=O)c2ccc(NC(=S)NC(=O)COc3ccc(Br)cc3Cl)cc2)n1 (2.5 µM) 0
Oc1ccc(/C=C/c2cc(O)cc(O)c2)cc1 [Resveratrol] (10 µM) 0
COc1ccc(S(=O)(=O)NCc2ccc(C(=O)NCCc3ccc(Cl)cn3)cc2)cc1 (10 µM) 0
O=c1[nH]c(C2CCCN2)nc2c1oc1ccc(Cl)cc12 (stereo not drawn) [XL413 (hydrochloride)] (10 µM) 0
O=C(NC1CCOCC1)c1ccc(-c2cc(-c3c[nH]nc3-c3ccccn3)ccn2)cc1 (10 µM) 0
N#Cc1c2nc3ccccc3nc2n2ccc(NC(=O)c3cccs3)cc12 (10 µM) 0
COCCNc1cc(NC(=O)N2CCCc3cc(CN4CCN(C)CC4=O)c(C=O)nc32)ncc1C#N [Roblitinib] (10 µM) 0
CN(C)CCC=C1c2ccccc2CCc2ccccc21 [Amitriptyline (hydrochloride)] (2.5 µM) 0
Cn1cc(C2=C(c3cn(CCCSC(=N)N)c4ccccc34)C(=O)NC2=O)c2ccccc21 [Ro 31-8220 (mesylate)] (2.5 µM) 0
CC(C)(C)n1nc(Cc2ccccc2O)c2c(N)ncnc21 (10 µM) 0
COc1cc2ncnc(Nc3ccc(F)c(Cl)c3)c2cc1NC(=O)/C=C/CN1CCCCC1 [Dacomitinib] (10 µM) 0
C[C@@H]1COCCN1c1nc(-c2cnc(N)cc2C(F)F)nc(N2[C@H](C)COC[C@@H]2C)n1 (2.5 µM) 0
COc1cc2ncnc(Nc3ccccc3)c2cc1OC (10 µM) 0
O=C(Nc1nc2ccccc2[nH]1)c1cccc([N+](=O)[O-])c1 [IRAK-4 protein kinase inhibitor 2] (10 µM) 0
Cc1ccc(Oc2nc3cc(-c4ccc(-c5ccccc5)cc4)c(Cl)cc3[nH]2)cc1C(=O)O (10 µM) 0
c1ccc(-c2nc3c(c(-n4ccc5cnccc54)n2)CCC3)nc1 (10 µM) 0
Cn1ncc2cc(-c3cnc(N)c(Cl)c3N3CCC4(CCNC4=O)CC3)ccc21 (10 µM) 0
C[C@H](Nc1ncnc2nc[nH]c12)c1cc2cccc(Cl)c2c(=O)n1-c1ccccc1 [Duvelisib] (10 µM) 0
CS(=O)(=O)c1ccc(-c2cnc(N)c(-c3ccc(C(F)(F)F)nc3)c2)cc1 (10 µM) 0
c1cc(NC2CCNCC2)nc(-c2cnc3ccccn23)c1 [IRAK inhibitor 1] (10 µM) 0
C[C@@H]1CCNC(=O)c2cc3ccc(C(=O)Nc4nc5ccccc5n4CCCN(C)C)cc3n21 (10 µM) 0
Cc1cnc(NC2CCOCC2)nc1-n1cnc(C(=O)N[C@H](CN)c2cc(F)cc(Cl)c2)c1 (10 µM) 0
O=C(NCc1cccc(O)c1)Nc1nc(-c2ccncc2)cs1 (10 µM) 0
Cc1cc2sc(NC(=O)Cc3ccccc3)nc2cc1Cl (10 µM) 0
COc1cc2ncnc(-n3nc(-c4ccccn4)nc3N)c2cc1OC (10 µM) 0
O=C(N[C@@H](C1CC1)C(F)(F)F)c1cc(-c2cnn3cc(-c4ccc(F)cc4)cnc23)cs1 (10 µM) 0
O=C1/C(=C\c2ccc(Cl)cc2)C=C(c2ccccc2)N1c1ccc(O)cc1 (2.5 µM) 0
CNC(=O)c1ccccc1Nc1nc(Nc2ccc3c(c2OC)CCC[C@H](N2CCN(CCO)CC2)C3)ncc1Cl (10 µM) 0
C=CC(=O)Nc1cccc(CNc2nc(Nc3ccc(N4CCN(C)CC4)cc3OC)ncc2Cl)c1 (10 µM) 0
CC(C)=CCc1c(-c2ccc(O)cc2O)oc2c3c(cc(O)c2c1=O)OC(C)(C)C=C3 [Morusin] (2.5 µM) 0
CN1CCC(c2ccccc2CC(C)(C)Nc2nc(N3CCOCC3)nc(-n3c(C(F)F)nc4ccccc43)n2)CC1 [Zandelisib] (10 µM) 0
CC(C)(O)[C@H]1CC[C@H](Nc2ccc3ncc(-c4cccc(C(F)(F)F)c4)n3n2)CC1 (10 µM) 0
CC(C)c1cc(/C=C(\C#N)C(=O)NCCCc2ccccc2)cc(C(C)C)c1O (10 µM) 0
CCOC(=O)N1C/C(=C/c2ccccc2F)C(=O)/C(=C\c2ccccc2F)C1 (2.5 µM) 0
C=CC(=O)Nc1cccc(-c2cccc3cnc(Nc4ccc(N5CCN(CCO)CC5)c(F)c4F)nc23)c1 [Olafertinib] (2.5 µM) 0
COc1cc(N2CCOCC2)ccc1Nc1ncc(Cl)c(Nc2ccccc2NS(C)(=O)=O)n1 (2.5 µM) 0
Nc1n[nH]c2nc(-c3ccc(NS(=O)(=O)c4cc(Cl)ccc4F)cc3)cnc12 (10 µM) 0
Nc1c(C(=O)NCc2ccc(C(=O)NCCCC3CCCCC3)cc2)cnn1-c1ccccc1 (2.5 µM) 0

Reprinted at random: two compounds from above, in no set order.
kinase-Nluc reporter destabilization hit call, inactive:
COc1cc2ncnc(Nc3ccc(F)c(Cl)c3)c2cc1NC(=O)/C=C/CN1CCCCC1 [Dacomitinib] (10 µM) 0
CC(C)(O)[C@H]1CC[C@H](Nc2ccc3ncc(-c4cccc(C(F)(F)F)c4)n3n2)CC1 (10 µM) 0
